Results deposited as PubChem BioAssay AID1259424 (University of Nebraska Medical Center, 2018)

- Purpose: 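Seek colon cancer survival genes behaving like KSR1, using a six-gene signature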 (primary screen)
- Cells: human HCT116 colon cancer cells
- Knock-down reagent: siRNA pool against human genes, 50 nM
- Measurement: 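Log2 levels of six mRNAs (branched-DNA multiplex), adjusted by two reference genes and the non-targeting median, then scored against the average KSR1 knockdown pattern as Pearson r and euclidean distance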
- Direction: mean correlation with KSR1 profile and KSR1 correlation: higher = expression change more like KSR1 knockdown; mean distance from KSR1 profile: higher = expression change less like KSR1 knockdown
In all, the deposit lists about 14,000 reagents; below is an unselected part. 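Higher correlation or smaller distance means closer resemblance to KSR1 loss; control wells, including KSR1 knockdowns, recur on many plates.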 Not given: the time to read-out.

Target gene	mean correlation with KSR1 profile	mean distance from KSR1 profile	KSR1 correlation, replicate 1	KSR1 correlation, replicate 2	KSR1 correlation, replicate 3
MRTO4	-0.331	2.37	-0.224	-0.374	-0.349
MRPL45	0.448	2.07	0.302	0.425	0.414
TRAT1	0.279	3.3	0.459	0.408	-0.15
GNG5	0.297	1.72	0.208	0.484	0.0777
FRA10AC1	-0.351	2.89	-0.371	-0.42	-0.482
KRTAP4-1	-0.0128	3.08	0.195	-0.0992	-0.447
ARHGDIB	-0.0936	1.15	-0.318	0.107	0.364
GMCL2	-0.0563	1.28	0.192	-0.394	-0.537
SLC52A2	0.548	2.27	0.385	0.669	0.507
EPYC	-0.531	2.73	-0.533	-0.72	-0.491
CNOT6L	-0.137	2.33	-0.0328	-0.162	-0.211
ACTA2	-0.269	1.65	-0.208	-0.368	-0.214
GALNT7	0.352	1.42	0.374	0.345	0.228
TLCD3A	0.28	1.85	0.375	0.286	0.264
RNASE7	0.868	1.1	0.788	0.836	0.69
USP40	-0.324	5.19	-0.138	0.101	-0.22
FLT1	0.809	3.17	0.696	0.652	0.731
CNR1	0.422	1.59	0.0538	0.523	0.52
GRIA3	-0.546	1.71	-0.863	-0.214	-0.302
DPYS	0.523	3.51	0.194	0.767	0.649
HBS1L	0.356	2.52	0.47	0.238	0.405
LASP1	-0.408	3.3	-0.347	-0.522	-0.364
NPY2R	0.785	1.48	0.779	0.858	0.809
ATP6V1C1	0.0202	2.65	-0.0177	-0.0755	-0.0119
ITIH1	-0.49	2.31	-0.354	-0.631	-0.594
SEMG2	0.337	2.07	0.278	0.404	0.298
LOC83459 (retired record)	0.746	3.37	0.641	0.712	0.824
TEAD1	0.358	1.68	0.243	0.498	0.434
SERHL2	-0.153	1.95	-0.301	-0.281	-0.183
PRO2964 (retired record)	-0.497	2.04	-0.45	-0.61	-0.316
CNOT10	-0.126	3.74	0.000909	-0.496	0.262
FGF12	0.339	2.1	0.319	0.247	0.373
HADH	0.0787	1.33	0.241	-0.216	0.0372
PEAK1	0.596	2.21	0.671	0.483	0.645
RTN4R	-0.511	2.71	-0.566	-0.325	-0.746
EPHB2	0.0633	3.17	0.345	-0.105	-0.474
DAZAP1	0.252	0.937	-0.465	-0.364	0.072
SERPINB10	0.279	1.27	0.445	0.307	0.0492
UBE2L6	-0.137	2.21	-0.351	0.125	-0.261
APEH	0.231	1.08	0.0161	0.276	0.524
ZNF32	0.391	3.12	0.582	0.451	0.037
SERTAD3	0.593	0.981	0.244	0.42	0.185
FKBP14	-0.418	1.65	-0.489	-0.531	-0.172
CLXN	0.824	0.841	0.83	0.944	0.607
QARS1	0.00883	2.92	-0.0518	-0.119	0.341
DNAH9	-0.449	3.04	-0.308	-0.546	-0.418
CSAD	0.0793	3.02	-0.0914	0.158	0.222
WTAP	-0.431	5.1	-0.345	-0.477	-0.406
SEL1L	-0.136	2.24	-0.11	-0.169	-0.176
EIF2AK2	0.223	2.02	0.252	0.336	0.194

Part of the list above, set out differently.
{"Target gene": "GNG5", "mean correlation with KSR1 profile": 0.297, "mean distance from KSR1 profile": 1.72, "KSR1 correlation, replicate 1": 0.208, "KSR1 correlation, replicate 2": 0.484, "KSR1 correlation, replicate 3": 0.0777}
{"Target gene": "FRA10AC1", "mean correlation with KSR1 profile": -0.351, "mean distance from KSR1 profile": 2.89, "KSR1 correlation, replicate 1": -0.371, "KSR1 correlation, replicate 2": -0.42, "KSR1 correlation, replicate 3": -0.482}
{"Target gene": "KRTAP4-1", "mean correlation with KSR1 profile": -0.0128, "mean distance from KSR1 profile": 3.08, "KSR1 correlation, replicate 1": 0.195, "KSR1 correlation, replicate 2": -0.0992, "KSR1 correlation, replicate 3": -0.447}
{"Target gene": "ARHGDIB", "mean correlation with KSR1 profile": -0.0936, "mean distance from KSR1 profile": 1.15, "KSR1 correlation, replicate 1": -0.318, "KSR1 correlation, replicate 2": 0.107, "KSR1 correlation, replicate 3": 0.364}
{"Target gene": "GMCL2", "mean correlation with KSR1 profile": -0.0563, "mean distance from KSR1 profile": 1.28, "KSR1 correlation, replicate 1": 0.192, "KSR1 correlation, replicate 2": -0.394, "KSR1 correlation, replicate 3": -0.537}
{"Target gene": "SLC52A2", "mean correlation with KSR1 profile": 0.548, "mean distance from KSR1 profile": 2.27, "KSR1 correlation, replicate 1": 0.385, "KSR1 correlation, replicate 2": 0.669, "KSR1 correlation, replicate 3": 0.507}
{"Target gene": "EPYC", "mean correlation with KSR1 profile": -0.531, "mean distance from KSR1 profile": 2.73, "KSR1 correlation, replicate 1": -0.533, "KSR1 correlation, replicate 2": -0.72, "KSR1 correlation, replicate 3": -0.491}
{"Target gene": "CNOT6L", "mean correlation with KSR1 profile": -0.137, "mean distance from KSR1 profile": 2.33, "KSR1 correlation, replicate 1": -0.0328, "KSR1 correlation, replicate 2": -0.162, "KSR1 correlation, replicate 3": -0.211}
